{"source": "patent US11842798B2", "about": "“Natural product and genetic data analysis and discovery system, method and computational platform therefor” (priority 2015, dated 2023)", "tested_on": "Bacillus subtilis 168", "assay": "Fluorescence microscopy, probe localization", "assay_type": "cell-based", "conditions": "live B. subtilis"}
{"substance": "N-carboxyfluorescein telomycin [fluorescein-labelled telomycin conjugate]", "values": [{"measurement": "localization in bacterial cells", "value": "localizes to poles and septa"}, {"measurement": "localization in bacterial cells", "setting": "listed as fluorescent conjugate of telomycin", "value": "accumulated at poles and septa"}]}
